Measured values taken from article PMC5992149.
These are yes or no findings as the source states them, for the method shown. In cells and extracts the contact can be indirect. Some results given as binding are weak or reduced against the parent protein; the word gives no strength.

Sequences of proteins named here, by UniProt entry; tags and fusion partners are left off. Residues count along the entry.
UniProt Q15109, residues 23-404: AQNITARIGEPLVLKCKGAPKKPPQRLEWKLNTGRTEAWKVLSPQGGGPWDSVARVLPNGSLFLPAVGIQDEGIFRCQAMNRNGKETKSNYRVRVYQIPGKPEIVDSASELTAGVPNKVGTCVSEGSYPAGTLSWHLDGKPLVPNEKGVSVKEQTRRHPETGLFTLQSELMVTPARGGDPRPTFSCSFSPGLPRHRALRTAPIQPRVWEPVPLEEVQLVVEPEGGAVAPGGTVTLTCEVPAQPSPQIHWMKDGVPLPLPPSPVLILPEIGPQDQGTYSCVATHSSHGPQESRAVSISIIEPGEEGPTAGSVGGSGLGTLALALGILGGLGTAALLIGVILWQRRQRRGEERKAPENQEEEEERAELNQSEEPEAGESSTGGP
UniProt P27695: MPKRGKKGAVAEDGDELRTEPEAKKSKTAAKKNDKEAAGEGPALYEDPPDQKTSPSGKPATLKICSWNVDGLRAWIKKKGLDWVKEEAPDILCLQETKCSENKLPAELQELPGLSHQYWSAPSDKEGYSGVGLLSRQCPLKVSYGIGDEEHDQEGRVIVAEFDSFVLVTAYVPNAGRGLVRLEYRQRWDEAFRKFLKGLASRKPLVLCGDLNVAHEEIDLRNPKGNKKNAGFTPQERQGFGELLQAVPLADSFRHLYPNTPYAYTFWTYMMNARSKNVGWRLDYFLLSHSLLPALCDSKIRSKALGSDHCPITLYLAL

Legend:
[1] = biological target: receptor for advanced glycation end products (human (endogenous in MDA-MB-231)) (UniProt Q15109); assay: condition: only xenografts treated with SA or TSA alone (no hyperacetylation); proximity ligation; Duolink II fluorescence kit on tumor sections of xenografts treated with SA or with TSA alone (not hyperacetylated); primary anti-RAGE (clone A11) and anti-APE1/Ref-1 antibodies
[2] = biological target: RAGE stably overexpressed in MDA-MB-231 cells (RAGE^OV) (UniProt Q15109); assay: proximity ligation; Duolink II fluorescence kit on tumor sections of hyperacetylated (20 mg/(kg·day) ASA + 0.5 mg/kg TSA) xenografts; primary anti-RAGE (clone A11) and anti-APE1/Ref-1 antibodies; proximity <40 nm; confocal microscopy
[3] = biological target: receptor for advanced glycation end products (human (endogenous in MDA-MB-231)) (UniProt Q15109); assay: as above

Which binding [1] does the source give for “secreted acetylated-apurinic apyrimidinic endonuclease 1/redox factor-1 (from UniProt P27695 1-318)” here?
The binding was “no binding”.

And the binding [2]?
The binding was “binds”.

What about the binding [3] of the same substance?
Its binding is “binds”.
